PubChem BioAssay AID1224826 – NIAID, 2016
Assay: 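Regulators of Tlr4 signalling leading to Tnf-alpha expression in macrophages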 (primary screen). System: RAW264.7 G9 macrophages from mouse bearing reporters for p65 (GFP) and the Tnf promoter (mCherry). Knock-down reagent: siRNA pool against mouse genes, 100 nM. Time to read-out: 16 h of LPS stimulation, after 2 days of siRNA transfection. Conditions: bacterial lipopolysaccharide (Salmonella minnesota R595), 10 ng/ml. Detection: 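Imaged Tnf reporter mCherry in nuclei, minus background, normalised per plate to the median and expressed as robust z-scores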. Direction: Tnf reporter robust z-score: higher = stronger Tnf promoter reporter signal after LPS; Tnf reporter intensity: higher = stronger Tnf promoter reporter signal. Active means: 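a well counts as active at a score of -1.3 or below (Tlr4 knock-down control median) or above 3 (raised signal); controls and wells holding fewer than 50 cells are excluded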. Calls: active = Tnf reporter clearly lowered or raised; inactive = no clear change in Tnf reporter.
In all, the deposit lists about 17,000 reagents; below is an unselected part. About 1,110 of them (6.6%) count as active. 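Active means lowered or raised reporter signal; replicate intensities are raw and not normalised per plate.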 A number with no mark means an inactive call. No sequences are given here.

no.	target	Tnf reporter robust z-score	fewer than 50 cells in well	Tnf reporter intensity, replicate 1	Tnf reporter intensity, replicate 2
1	Slc22a21	1.73	enough cells in well	143	179
2	Vmn1r64	-0.37	enough cells in well	113	71
3	Mid1	0.58	enough cells in well	334	230
4	Slc60a2a	-0.43	enough cells in well	186	150
5	D830044D21Rik	0.81	enough cells in well	186	193
6	Chrnb3	0.27	enough cells in well	292	204
7	Cndp1	-0.64	enough cells in well	104	173
8	Jph4	0.21	enough cells in well	129	194
9	Tsen15	-0.01	enough cells in well	119	149
10	Suv39h2	-0.72	enough cells in well	217	158
11	Cul1	0.17	enough cells in well	249	215
12	Mms19	2.45	enough cells in well	382	212
13	Il9	-0.36	enough cells in well	230	118
14	Snap47	0.5	enough cells in well	325	84.9
15	AY358078	-0.89	enough cells in well	136	99.3
16	Osbpl8	1.24	enough cells in well	223	188
17	Hmgcs2	0.59	enough cells in well	284	226
18	Psrc1	-0.57	enough cells in well	116	141
19	Ticam2	-0.83	enough cells in well	81.2	70.2
20	Gdap10	0.42	enough cells in well	301	144
21	Ngef	0.62	enough cells in well	255	139
22	Lrrn4	-1.74 (active)	enough cells in well	77.8	61
23	Zfp318	0.67	enough cells in well	156	148
24	Grik2	0.38	enough cells in well	286	269
